According to the supplement of paper PMC10735217:
Where a name gives a salt, the structure may show the parent alone. The list shows a part of the results. This data set is noisy: repeats of one test often differ as much as different tests do.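 In a drug-repurposing library screen, luminescence reads luciferase driven by eight TEAD-binding elements, stably integrated into human kidney-derived cells. Compounds scoring over five robust Z scores above the plate mean are called hits.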

System: HEK293A TEAD-LUC reporter
Experiment: TEAD-luciferase reporter activity (YAP activation), robust Z score vs plate; higher = stronger YAP/TEAD activation
Conditions: 24 h

Row | SMILES | TEAD-luciferase reporter activity (compound concentration: 200 nM) | TEAD-luciferase reporter activity (compound concentration: 2 uM) | TEAD-luciferase reporter activity (compound concentration: 10 uM)
1 | CNS(=O)(=O)Nc1nccc(Cc2c(C)c3ccc(Oc4ncccn4)cc3oc2=O)c1F | inactive: 0.661 | inactive: 1.18 | inactive: 1.85
2 | Cc1cc(C)cc(COCCOCn2cc(C)c(=O)[nH]c2=O)c1 | inactive: -2.03 | inactive: -1.07 | inactive: -1.62
3 | Cn1cnc2c(F)c(Nc3ccc(Br)cc3F)c(C(=O)NOCCO)cc21 [binimetinib] | inactive: -0.0352 | inactive: 1.25 | inactive: -0.711
4 | CC(=O)Oc1ccccc1C(=O)O[C@H](C)[C@H](N)C(=O)O | inactive: -1.55 | inactive: -1.59 | inactive: -1.8
5 | Cn1ncnc1COc1nn2c(-c3cc(F)ccc3F)nnc2cc1C(C)(C)C | inactive: 1.39 | inactive: 0.664 | inactive: 1.56
6 | Cc1ccc(S(=O)(=O)Nc2nc3ccccc3nc2Cl)cc1 | inactive: -0.599 | inactive: -0.201 | inactive: 1.15
7 | CC1CC(OC(=O)C(O)c2ccccc2)CC(C)(C)C1 (configuration not stated) [cyclandelate] | – | inactive: -1.73 | –
8 | CC1CC(OC(=O)C(O)c2ccccc2)CC(C)(C)C1 (configuration not stated) [cyclandelate, Elan] | inactive: -2.77 | – | inactive: 1.95
9 | CC(C)[C@H](N)C(=O)OC[C@H]1O[C@@H](n2cc(F)c(=O)[nH]c2=O)[C@H](O)[C@@H]1O | inactive: -2.77 | inactive: -1.2 | inactive: -0.852
10 | CN[C@H](CC(C)C)C(=O)N[C@H]1C(=O)N[C@@H](CC(N)=O)C(=O)N[C@H]2C(=O)N[C@H]3C(=O)N[C@H](C(=O)N[C@H](C(=O)O)c4cc(O)cc(O)c4-c4cc3ccc4O)[C@H](O)c3ccc(c(Cl)c3)Oc3cc2cc(c3O[C@@H]2O[C@H](CO)[C@@H](O)[C@H](O)[C@H]2O[C@H]2C[C@](C)(N)[C@H](O)[C@H](C)O2)Oc2ccc(cc2Cl)[C@H]1O [Vancomycin hydrochloride] | – | inactive: -0.775 | –
11 | CN[C@H](CC(C)C)C(=O)N[C@H]1C(=O)N[C@@H](CC(N)=O)C(=O)N[C@H]2C(=O)N[C@H]3C(=O)N[C@H](C(=O)N[C@H](C(=O)O)c4cc(O)cc(O)c4-c4cc3ccc4O)[C@H](O)c3ccc(c(Cl)c3)Oc3cc2cc(c3O[C@@H]2O[C@H](CO)[C@@H](O)[C@H](O)[C@H]2O[C@H]2C[C@](C)(N)[C@H](O)[C@H](C)O2)Oc2ccc(cc2Cl)[C@H]1O [Vancomycin] | inactive: 1.02 | – | inactive: 0.248
12 | OC(CCN1CCCCC1)(c1ccccc1)C1CC2C=CC1C2 (configuration not stated) [Biperiden] | inactive: 2.2 | inactive: -0.87 | inactive: -1.81
13 | CC[C@H](C)[C@H](NC(=O)[C@@H](NC(=O)[C@H](CCC(=O)O)NC(=O)[C@H](CCSC)NC(=O)[C@H](CC(C)C)NC(=O)[C@H](CCCCN)NC(=O)[C@H](CCCNC(=N)N)NC(=O)[C@H](CC(N)=O)NC(=O)[C@H](CO)NC(=O)[C@H](Cc1c[nH]cn1)NC(=O)[C@H](C)NC(=O)[C@H](CCC(N)=O)NC(=O)[C@H](CCC(N)=O)NC(=O)[C@H](C)NC(=O)[C@H](CC(C)C)NC(=O)[C@H](CCC(N)=O)NC(=O)[C@H](CCC(=O)O)NC(=O)[C@H](C)NC(=O)[C@H](CCCNC(=N)N)NC(=O)[C@H](C)NC(=O)[C@H](CCSC)NC(=O)[C@H](CCC(=O)O)NC(=O)[C@H](CC(C)C)NC(=O)[C@@H](NC(=O)[C@H](CCC(=O)O)NC(=O)[C@H](CCCNC(=N)N)NC(=O)[C@H](CC(C)C)NC(=O)[C@H](CC(C)C)NC(=O)[C@H](Cc1c[nH]cn1)NC(=O)[C@H](Cc1ccccc1)NC(=O)[C@@H](NC(=O)[C@H](CC(C)C)NC(=O)[C@H](CC(=O)O)NC(=O)[C@H](CC(C)C)NC(=O)[C@H](CO)NC(=O)[C@@H](NC(=O)[C@@H]1CCCN1C(=O)[C@@H]1CCCN1C(=O)[C@H](CCC(=O)O)NC(=O)[C@H](CCC(=O)O)NC(=O)[C@@H](N)CO)[C@@H](C)CC)[C@@H](C)O)C(C)C)[C@@H](C)CC)C(N)=O [Corticotropin-releasing factor (human)] | inactive: -2.16 | inactive: -1.44 | inactive: 1.56
14 | Fc1ccc2c(N3CCN(CC4Cc5ccccc54)CC3)noc2c1 (configuration not stated) | inactive: -0.717 | inactive: -0.531 | inactive: 0.745
15 | COC(=O)Nc1cc(N2CC=CCC2)nc2nc(=O)on12 [Carprazadil] | inactive: -0.927 | inactive: -0.924 | inactive: 0.527
16 | CC(=O)OC[C@H]1O[C@@H](n2ccc(=O)[nH]c2=O)[C@H](OC(C)=O)[C@@H]1OC(C)=O [uridine triacetate] | inactive: -2.72 | inactive: -0.148 | inactive: -1.6
17 | COC(=O)[C@H](C/C=C/c1ccc(N(C)c2ncccn2)cc1)NC(=O)Cc1ccccc1 | inactive: 2.21 | inactive: -0.0174 | inactive: 0.114
18 | CC[C@H](Oc1ccccc1)C(=O)N[C@@H]1C(=O)N2[C@@H]1SC(C)(C)[C@@H]2C(=O)O | inactive: -0.399 | inactive: -0.911 | inactive: 0.126
19 | O=C(O)c1ccccc1NC(=O)N1CCC(c2ccccc2C(F)(F)F)CC1 | inactive: -1.11 | inactive: -2.05 | inactive: 0.186
20 | CC1C(=O)OC2C(O)C34C5CC(C(C)(C)C)C36C(OC(=O)C6O)OC4(C(=O)O5)C12O (configuration not stated) [Ginkgolide B] | inactive: 0.727 | inactive: -1.83 | inactive: -2.03
21 | CCOc1ncc(S(=O)(=O)N2CCN(CC)CC2)cc1-c1nc2c(CC)n(CCOC)nc2c(=O)[nH]1 [gisadenafil] | inactive: -0.987 | inactive: -1.63 | inactive: -0.576
22 | Cn1nccc1-c1ccc(Sc2cccc(C3(C(N)=O)CCOCC3)c2)cc1 | inactive: -1.49 | inactive: -1.57 | inactive: -1.37
23 | CC(=O)Nc1ccc(C(=O)N2CCN(c3cccc(C=O)c3)C(=O)C2)cc1 | inactive: 0.368 | – | inactive: 1.55

Shown tab-delimited: entries from further up
Row	SMILES	TEAD-luciferase reporter activity (compound concentration: 200 nM)	TEAD-luciferase reporter activity (compound concentration: 2 uM)	TEAD-luciferase reporter activity (compound concentration: 10 uM)
4	CC(=O)Oc1ccccc1C(=O)O[C@H](C)[C@H](N)C(=O)O	inactive: -1.55	inactive: -1.59	inactive: -1.8
14	Fc1ccc2c(N3CCN(CC4Cc5ccccc54)CC3)noc2c1 (configuration not stated)	inactive: -0.717	inactive: -0.531	inactive: 0.745

Next entries.

Row | SMILES | TEAD-luciferase reporter activity (compound concentration: 200 nM) | TEAD-luciferase reporter activity (compound concentration: 2 uM) | TEAD-luciferase reporter activity (compound concentration: 10 uM)
24 | Cc1ccc2c(NC[C@](O)(CC(C)(C)c3cc(F)cc4c3OCC4)C(F)(F)F)cccc2n1 [Mapracorat] | inactive: 0.0606 | – | inactive: -0.422
25 | CCC(CO)NCCNC(CC)CO (configuration not stated) [Ethambutol] | inactive: 2.02 | inactive: -1.01 | inactive: -1.63
26 | CC1(C)OCC(COC(=O)C(Cc2ccccc2)N[C@@H](Cc2ccccc2)C(=O)NCCC(=O)O)O1 (some centres not stated) | inactive: -1.22 | inactive: 0.944 | inactive: -0.687
27 | CC(C)(C)c1cc(SC(Sc2cc(C(C)(C)C)c(O)c(C(C)(C)C)c2)Sc2cc(C(C)(C)C)c(O)c(C(C)(C)C)c2)cc(C(C)(C)C)c1O | inactive: -0.724 | inactive: -1.37 | inactive: 0.31
28 | COc1ccc2nc3c(c(N)c2c1)CCCC3 [7-Methoxytacrine] | inactive: -1.26 | inactive: -0.844 | inactive: -0.847
29 | CC(C)N1CCN(C(=O)c2ccc(OC(=O)C3CCCc4ccccc43)cc2)CC1 (configuration not stated) | inactive: -0.43 | inactive: -0.648 | inactive: 0.955
30 | COC(=O)C1C(O)CCC2CN3CCc4c([nH]c5ccccc45)C3CC21 (configuration not stated) [Yohimbine] | inactive: -0.27 | inactive: 0.13 | inactive: 0.295
31 | COCC1=C(C(=O)OC)[C@H](c2ccc(F)c(F)c2)N(C(=O)NCCCN2CCC(c3cccc(NC(C)=O)c3)CC2)C(=O)N1 | inactive: 0.625 | inactive: -1.21 | inactive: 0.381
32 | Fc1ccc(C(OCCNCCc2ccccc2)c2ccc(F)cc2)cc1 | inactive: 0.258 | inactive: 0.777 | inactive: 0.867
33 | O=C(OCCN1CCOCC1)c1cccnc1Nc1cccc(C(F)(F)F)c1 [morniflumate] | inactive: -1.05 | inactive: 0.581 | inactive: -1.49
34 | OCCN1CCN(CCCN2c3ccccc3Sc3ccc(Cl)cc32)CC1 | inactive: -1.29 | – | inactive: 3.25
35 | OCCN1CCN(CCCN2c3ccccc3Sc3ccc(Cl)cc32)CC1 [Perphenazine] | – | inactive: -0.671 | –
36 | CCCCC[C@@H](O)[C@H]1C(=O)O[C@H](C)[C@@H](O)/C=C/C=C/C=C/C=C/C=C(C)[C@@H](O)C[C@H](O)C[C@H](O)C[C@H](O)C[C@H](O)C[C@H](O)C[C@@H]1O [filipine] | inactive: -0.847 | inactive: -0.23 | inactive: 0.732
37 | COc1cnc(NS(=O)(=O)c2ccc(N)cc2)nc1 | inactive: -0.959 | inactive: -1.29 | inactive: -0.897
38 | CC(=O)N1Cc2ccccc2CC12CCCN(C(=O)CCCN)C2 (configuration not stated) | inactive: -0.484 | – | active: 99
39 | CCN(CC)CCCCC1CCN(CC(=O)N2c3ccccc3C(=O)Nc3cccnc32)CC1 | inactive: 0.892 | inactive: -1.73 | inactive: 2.06
40 | CCCCOc1ccc(C(=O)OC2CC(C)N(C)CC2C)cc1 (configuration not stated) | inactive: -0.332 | inactive: -2.29 | inactive: -0.869
41 | CC1(C)C2CCC1(C)C(Cl)C2 (configuration not stated) | inactive: -0.261 | inactive: -0.538 | inactive: -1.42
42 | Cn1cc(C(F)(F)F)nc1-c1ccc(OCC(O)CNCCOc2ccc(O)c(C(N)=O)c2)cc1 (configuration not stated) | inactive: -0.0975 | inactive: -1.85 | inactive: 2.23
43 | Cc1coc2c1C(=O)C(=O)c1c-2ccc2c1CCCC2(C)C [Tashi    IIA] | – | inactive: -0.701 | –
44 | Cc1coc2c1C(=O)C(=O)c1c-2ccc2c1CCCC2(C)C [Tashi IIA] | inactive: -2.11 | – | –
45 | Cc1coc2c1C(=O)C(=O)c1c-2ccc2c1CCCC2(C)C [Tashi   IIA] | – | – | inactive: 2.72
